{"sequences": {"note": "Chains of the proteins cited; added tags and fusions are not shown. Lines headed by an entry give the natural chain unless they say otherwise; changes in a name come on top.", "UniProt P18054": "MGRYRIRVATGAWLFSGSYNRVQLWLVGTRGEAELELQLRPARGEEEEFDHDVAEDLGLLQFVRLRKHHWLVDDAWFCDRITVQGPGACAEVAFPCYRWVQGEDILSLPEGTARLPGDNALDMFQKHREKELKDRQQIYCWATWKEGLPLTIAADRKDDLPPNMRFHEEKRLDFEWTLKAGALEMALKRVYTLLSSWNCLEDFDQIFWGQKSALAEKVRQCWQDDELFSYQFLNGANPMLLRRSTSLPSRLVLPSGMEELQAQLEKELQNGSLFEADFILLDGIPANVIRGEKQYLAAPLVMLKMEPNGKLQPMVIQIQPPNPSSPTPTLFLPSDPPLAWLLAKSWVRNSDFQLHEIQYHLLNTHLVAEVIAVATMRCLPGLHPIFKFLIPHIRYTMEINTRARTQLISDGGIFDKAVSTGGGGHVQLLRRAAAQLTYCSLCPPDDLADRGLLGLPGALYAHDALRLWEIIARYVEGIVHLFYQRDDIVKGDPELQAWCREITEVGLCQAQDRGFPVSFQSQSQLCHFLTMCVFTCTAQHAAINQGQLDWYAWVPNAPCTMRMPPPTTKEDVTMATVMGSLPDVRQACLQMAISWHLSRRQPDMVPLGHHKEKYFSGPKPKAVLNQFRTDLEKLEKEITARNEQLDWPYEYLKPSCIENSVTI"}, "source": "PubChem BioAssay AID1671190", "about": "(National Center for Advancing Translational Sciences (NCATS), 2021)", "note": "In all, about 580,000 compounds went through this assay and about 6,100 (1.1%) were called active. Inconclusive means that the source gave no clear call. Such entries were picked first, then a sample of the others. Calls come from the whole dose curve; as a rule, active = well fitted inhibition curve with a large enough effect; inconclusive = small, poorly fitted or top-dose-only effect, or another doubt; inactive = no such curve, though single readings can be large or run the other way. Where the call is inconclusive, the potency comes from a doubtful curve fit. % is set by controls: 0 for no effect and ±100 for the full control effect; potency is the fitted concentration of half-maximal effect.", "data": [{"target": "Polyunsaturated fatty acid lipoxygenase ALOX12 (Homo sapiens) (UniProt P18054)", "assay": "Primary qHTS assay for inhibitors of human arachidonate 12S-lipoxygenase (ALOX12): Round 2", "details": "purified 12hLO, xylenol orange hydroperoxide absorbance; activity change, negative = inhibition: at 108 µM (top of the series) unless noted", "summary_of_the_method": "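Hydroperoxide product was detected by ferrous iron/xylenol orange as the 573 to 405 nm absorbance ratio. Arachidonic acid at 40 uM (final) was turned over for 30 min at room temperature by 150 nM human 12hLO, pH 7.0 Hepes buffer, after 15 min compound preincubation.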", "values": [{"smiles": "COc1cc(Nc2cc(C)nc3ncnn23)cc(OC)c1", "Potency": "inconclusive: 35.5 µM [inhibitor, partial curve, poor fit]"}, {"smiles": "COc1ccccc1OCc1cc(C(=O)NCC2COCCO2)n[nH]1", "note": "(stereo not drawn)", "activity change, negative = inhibition": "inactive: 87.9%"}, {"smiles": "CCOc1ccc(/C=N/NC(=O)c2ccc(Cn3cc([N+](=O)[O-])cn3)o2)cc1", "Potency": "inconclusive: 50.1 µM [inhibitor, single point]"}, {"smiles": "O=C(C1=C(O)C(=O)N(CCN2CCOCC2)C1c1ccc(Cl)cc1)c1cc2ccccc2o1", "note": "(stereo not drawn)", "Potency": "inconclusive: 39.8 µM [inhibitor, single point]"}, {"smiles": "O=C(Nc1ccccc1F)c1ccc(-c2ccccc2)cc1", "activity change, negative = inhibition": "inactive: -9.77%"}, {"smiles": "OCCCn1c(CCNc2nc(-c3ccc(F)cc3)cs2)nc2cc(C(F)(F)F)ccc21", "activity change, negative = inhibition": "inactive: -4.97%"}, {"smiles": "COC(=O)c1ccc2nc(-c3ccco3)c(Cc3ccc(C)cc3)n2c1", "Potency": "inconclusive: 89.1 µM [inhibitor, partial curve, poor fit]"}, {"smiles": "C=CC[C@H](CC(=O)N(CCO)Cc1ccccc1)C(=O)N[C@H](COC(=O)[C@@H](CC=C)CC(=O)OC(C)(C)C)c1ccccc1", "Potency": "inconclusive: 2 µM [inhibitor, full curve, poor fit]"}, {"smiles": "O=C(Nn1cnnc1)c1cc(-c2ccccn2)nc2ccccc12", "activity change, negative = inhibition": "inactive: 85.5%"}, {"smiles": "O=C(N1CCC(c2nc(C3CCOCC3)no2)C1)C1(c2ccccc2)CC1", "note": "(stereo not drawn)", "Potency": "inconclusive: 3.16 µM [inhibitor, partial curve]"}, {"smiles": "Cc1nn(Cc2cc(C(=O)O)c3ccccc3n2)c(C)c1Cl", "Potency": "inconclusive: 44.7 µM [inhibitor, partial curve, poor fit]"}, {"smiles": "CC[n+]1c(/C=C/Nc2ccccc2)oc2ccccc21", "Potency": "inconclusive: 15.8 µM [inhibitor, partial curve]"}, {"smiles": "O=C(Cn1nnc2c(cnn2-c2ccccc2)c1=O)NCc1cccs1", "activity change, negative = inhibition": "inactive: -23.6%"}, {"smiles": "Clc1ccccc1Nc1nc(-c2ccncc2)nc2ccccc12", "Potency": "inconclusive: 31.6 µM [inhibitor, full curve, poor fit]"}, {"smiles": "O=C(O)c1ccccc1CC(CCc1ccccc1)C(=O)O", "note": "(stereo not drawn)", "Potency": "active: 28.2 µM"}, {"smiles": "CCc1cccc(C)c1NC(=S)NCCc1c(C)[nH]c2ccc(C)cc12", "Potency": "inconclusive: 39.8 µM [inhibitor, partial curve, poor fit]"}, {"smiles": "Cc1cccc(C)c1NC(=O)C(c1ccccc1)n1c(=O)c(-c2ccccc2)nc2ccccc21", "note": "(stereo not drawn)", "activity change, negative = inhibition": "inactive: -9.17%"}, {"smiles": "Cc1cccc(NC(=O)NCc2ccc3c(c2)cc(C)n3C)c1", "Potency": "inconclusive: 22.4 µM [inhibitor, partial curve]"}, {"smiles": "COC(=O)c1[nH]c(C)c(/C(O)=C2\\C(=O)C(=O)N(CCCn3ccnc3)C2c2ccc(Cl)cc2)c1C", "note": "(stereo not drawn)", "activity change, negative = inhibition": "inactive: -25.4%"}, {"smiles": "COc1ccc(-n2c(SCC(=O)c3ccccc3)nc3c([nH]c4ccccc43)c2=O)cc1", "Potency": "inconclusive: 141 µM [inhibitor, partial curve, poor fit]"}, {"smiles": "O=C(NCCC1=CCCCC1)C12CC3CC(CC(Cl)(C3)C1)C2", "activity change, negative = inhibition": "inactive: -22.8%"}, {"smiles": "CCc1[nH]c(C(=O)N2CCCC2c2ccc3c(c2)OCCO3)c(C)c1C(=O)OC", "note": "(stereo not drawn)", "activity change, negative = inhibition": "inactive: 23.6%"}, {"smiles": "Cn1ccc2c(-c3cccc(C=O)c3)cc3c(c21)C1CCC3O1", "note": "(stereo not drawn)", "Potency": "inconclusive: 79.4 µM [inhibitor, single point]"}, {"smiles": "CN(C(=O)COC(=O)c1n[nH]c(=O)c2ccccc12)c1ccccc1", "Potency": "inactive"}, {"smiles": "N#Cc1ccccc1N1CCN(c2ccccc2)CC1", "activity change, negative = inhibition": "inactive: 0.228%"}, {"smiles": "COc1ccc2nc(SC)c(C#N)cc2c1", "activity change, negative = inhibition": "inactive: 0.836%"}, {"smiles": "CC(C)C[C@@H]1O[C@H](CCc2ccccc2)Cc2[nH]c(=S)[nH]c(=O)c21", "Potency": "inconclusive: 22.4 µM [inhibitor, full curve]"}, {"smiles": "O=C(N/N=C/c1cc([N+](=O)[O-])ccc1Cl)c1cnccn1", "Potency": "inconclusive: 2.51 µM [inhibitor, full curve]"}, {"smiles": "CC1Oc2ccc(NC(=O)c3ccc(F)cc3)cc2CN(Cc2ccccc2F)C1=O", "note": "(stereo not drawn)", "activity change, negative = inhibition": "inactive: 27.1%"}, {"smiles": "COCCCNC(=O)CSCc1nc(-c2ccccc2C)oc1C", "activity change, negative = inhibition": "inactive: 9.11%"}, {"smiles": "CCCc1ccc(C(=O)/C=C/c2cc(OC)c(OC)c(OC)c2)cc1", "activity change, negative = inhibition": "inactive: -14.8%"}, {"smiles": "COc1ccc(NCC(=O)N/N=C/c2ccc3c(c2)OCCO3)cc1", "Potency": "inconclusive: 100 µM [inhibitor, partial curve, poor fit]"}, {"smiles": "CC(Nc1ccc([N+](=O)[O-])cn1)c1ccc(Cl)cc1", "note": "(stereo not drawn)", "Potency": "inconclusive: 50.1 µM [inhibitor, partial curve, poor fit]"}, {"smiles": "CCOC(=O)c1sc2nc(-c3ccco3)c3c(c2c1N)CC(C)(C)OC3", "Potency": "inconclusive: 1.58 µM [inhibitor, full curve, poor fit]"}, {"smiles": "COc1ccccc1-c1ccc(/C=C2\\C=CC(=O)O2)o1", "Potency": "inconclusive: 28.2 µM [inhibitor, partial curve, poor fit]"}, {"smiles": "CC1(C)CC2(CC(c3ccccc3)Oc3cc(O)ccc32)NC(=O)N1", "note": "(stereo not drawn)", "activity change, negative = inhibition": "inactive: -13.2%"}, {"smiles": "Cc1oc2c(C)c3o/c(=N/O)c4c(c3cc2c1C)CCCC4", "Potency": "inconclusive: 44.7 µM [inhibitor, partial curve, poor fit]"}, {"smiles": "Cc1c(O)ccc2c(CN3CCN(C/C=C/c4ccccc4)CC3)cc(=O)oc12", "activity change, negative = inhibition": "inactive: -23.4%"}, {"smiles": "COCCN1C=C(C(=O)OC)C(c2ccc(Cl)cc2)C(C(=O)OC)=C1", "activity change, negative = inhibition": "inactive: -12.3%"}, {"smiles": "Cc1cccc(NC(=O)CSc2nc(N)c(NC(=O)c3cccs3)c(=O)[nH]2)c1C", "Potency": "inconclusive: 79.4 µM [inhibitor, partial curve, poor fit]"}, {"smiles": "CC(CC(=O)NCc1ccco1)S(=O)(=O)c1ccc2c(c1)CCN2C(=O)C1CC1", "note": "(stereo not drawn)", "activity change, negative = inhibition": "inactive: -0.928%"}, {"smiles": "Cc1ccc2nc(-c3cccc(Br)c3)c(Cc3ccsc3)n2c1", "Potency": "inconclusive: 35.5 µM [inhibitor, single point]"}, {"smiles": "Cc1noc(C)c1S(=O)(=O)Nc1ccc2c(c1)C(=O)N([C@H](C)CO)C[C@H](C)[C@H](CN(C)S(=O)(=O)c1ccc(Cl)cc1)OCCCC[C@@H](C)O2", "activity change, negative = inhibition": "inactive: -6.57%"}, {"smiles": "Cc1ccc(-n2nc(CO)c(C(=O)NCc3cccs3)n2)cc1", "Potency": "inconclusive: 56.2 µM [inhibitor, partial curve, poor fit]"}, {"smiles": "COc1cc(NC(=O)C2=COCCO2)c(OC)cc1Cl", "activity change, negative = inhibition": "inactive: -0.74%"}, {"smiles": "O=C(COc1ccccc1)N[C@@H]1C[C@H](Cn2cc(-c3cccnc3)nn2)[C@@H](O)[C@H]1O", "Potency": "inconclusive: 8.91 µM [inhibitor, full curve]"}, {"smiles": "O=C1OCCN1C(=O)[C@H]1[C@H](c2ccccc2)C(c2ccccc2)=NN1c1ccccc1", "Potency": "inconclusive: 112 µM [inhibitor, partial curve, poor fit]"}, {"smiles": "CS(=O)(=O)c1ccc(C(=O)N(Cc2ccccc2)c2ccccc2)cc1", "Potency": "inconclusive: 50.1 µM [inhibitor, partial curve, poor fit]"}, {"smiles": "Cc1nc2ccccc2c(C)c1CC(=O)N(C)C(C)c1cc2ccccc2o1", "note": "(stereo not drawn)", "activity change, negative = inhibition": "inactive: -14.5%"}, {"smiles": "Cc1ccsc1/C=N/NC(=S)NCCc1ccccc1", "Potency": "inconclusive: 50.1 µM [inhibitor, partial curve, poor fit]"}, {"smiles": "Cc1ccc(S(=O)(=O)N(C)C)cc1NC(=O)COC(=O)/C=C/c1ccc2c(c1)OCO2", "activity change, negative = inhibition": "inactive: -2.01%"}, {"smiles": "CCc1cc(=O)oc2cc(OCC(=O)O)c(Cl)cc12", "Potency": "inconclusive: 44.7 µM [inhibitor, partial curve, poor fit]"}, {"smiles": "CNC(=O)CCn1ncc2cc(OCc3ccccc3-c3cc(Cl)ccc3OC)ccc21", "Potency": "inconclusive: 44.7 µM [inhibitor, partial curve, poor fit]"}, {"smiles": "O=C1CCCC2=C1C(c1ccc(O)cc1)c1c(ccc3ccccc13)N2", "note": "(stereo not drawn)", "Potency": "inconclusive: 35.5 µM [inhibitor, partial curve, poor fit]"}, {"smiles": "COc1ccccc1CNC(=O)COC(=O)C1CCN(c2ccc(C(F)(F)F)cn2)CC1", "activity change, negative = inhibition": "inactive: 5.73%"}, {"smiles": "CCc1cc2c(Sc3ccc(C(F)(F)F)cn3)ncnc2s1", "activity change, negative = inhibition": "inactive: -3.99%"}, {"smiles": "COc1ccccc1CCNC(=O)C(=O)NCC(c1ccco1)S(=O)(=O)c1ccc(C)cc1", "note": "(stereo not drawn)", "Potency": "inconclusive: 50.1 µM [inhibitor, partial curve, poor fit]"}, {"smiles": "COC(=O)C1CCCCN1Cc1nc(N(C)C)c2ccccc2n1", "note": "(stereo not drawn)", "Potency": "inconclusive: 5.62 µM [inhibitor, full curve, poor fit]"}, {"smiles": "CCC(C(=O)NCc1ccco1)N(C(=O)CNS(=O)(=O)c1ccccc1)c1ccccc1C", "note": "(stereo not drawn)", "Potency": "inconclusive: 100 µM [inhibitor, partial curve, poor fit]"}, {"smiles": "Cc1ccc(C(=O)NNC(=S)NC(=O)c2ccc(Cl)cc2)cc1", "Potency": "inconclusive: 7.08 µM [inhibitor, full curve, poor fit]"}, {"smiles": "CCOc1cc(C2/C(=C(/O)c3ccc(OC(C)C)cc3)C(=O)C(=O)N2CCCOC)ccc1O", "note": "(stereo not drawn)", "Potency": "active: 20 µM"}, {"smiles": "O=C([C@@H]1C[C@H](Oc2cccnc2)CN1C(=O)c1cnccn1)N1CCCC1", "activity change, negative = inhibition": "inactive: 32.4%"}, {"smiles": "Cc1ccc(S(=O)(=O)N2CCN(C(=O)c3cc(C4CC4)nn3-c3ccccc3)CC2)cc1", "Potency": "inconclusive: 44.7 µM [inhibitor, partial curve, poor fit]"}, {"smiles": "Cc1cc(C)c(S(=O)(=O)NCC(c2cccs2)S(=O)(=O)c2ccccc2)c(C)c1", "note": "(stereo not drawn)", "Potency": "inconclusive: 56.2 µM [inhibitor, partial curve, poor fit]"}, {"smiles": "O=C(O)c1ccc(Cl)c(S(=O)(=O)Nc2ccc(S(=O)(=O)Nc3cccc(Cl)c3)cc2)c1", "activity change, negative = inhibition": "inactive: -23.8%"}, {"smiles": "O=c1cc(CO)oc(CN2CCN(c3ccccc3F)CC2)c1O", "Potency": "inconclusive: 7.08 µM [inhibitor, partial curve, poor fit]"}, {"smiles": "COc1ccc2c(c1OC)C(=O)N(c1cccc(/C=C/C(=O)O)c1)C2", "Potency": "inconclusive: 39.8 µM [inhibitor, single point]"}, {"smiles": "Cc1ccc(Nc2cc(C(=O)NCCCN3CCOCC3)c3ccccc3n2)cc1C", "Potency": "inconclusive: 100 µM [inhibitor, single point]"}]}]}
